From publication PMC11563687
Results are given in words; binding and its absence hold for the method and conditions named. In cells and extracts the contact can be indirect. Some binding calls cover weakened binding; strength is not graded here. One block for each substance: values may come before it.

Protein sequences, listed by entry. Tags and fused reporters are not part of them.
UniProt Q13185: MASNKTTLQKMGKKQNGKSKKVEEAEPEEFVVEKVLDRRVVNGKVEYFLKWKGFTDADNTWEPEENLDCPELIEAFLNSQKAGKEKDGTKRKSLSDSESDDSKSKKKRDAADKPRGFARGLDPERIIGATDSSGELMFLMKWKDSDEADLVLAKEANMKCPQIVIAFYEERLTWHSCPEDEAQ
UniProt P48431: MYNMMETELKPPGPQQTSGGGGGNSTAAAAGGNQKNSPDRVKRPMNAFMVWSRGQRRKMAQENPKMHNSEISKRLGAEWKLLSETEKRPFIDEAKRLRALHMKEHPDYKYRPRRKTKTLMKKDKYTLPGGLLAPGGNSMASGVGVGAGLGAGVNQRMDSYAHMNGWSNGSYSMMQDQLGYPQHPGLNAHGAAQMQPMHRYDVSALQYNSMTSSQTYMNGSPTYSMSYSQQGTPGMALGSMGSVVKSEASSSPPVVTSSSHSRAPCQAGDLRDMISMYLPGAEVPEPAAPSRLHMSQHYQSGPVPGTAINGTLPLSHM
UniProt Q09472: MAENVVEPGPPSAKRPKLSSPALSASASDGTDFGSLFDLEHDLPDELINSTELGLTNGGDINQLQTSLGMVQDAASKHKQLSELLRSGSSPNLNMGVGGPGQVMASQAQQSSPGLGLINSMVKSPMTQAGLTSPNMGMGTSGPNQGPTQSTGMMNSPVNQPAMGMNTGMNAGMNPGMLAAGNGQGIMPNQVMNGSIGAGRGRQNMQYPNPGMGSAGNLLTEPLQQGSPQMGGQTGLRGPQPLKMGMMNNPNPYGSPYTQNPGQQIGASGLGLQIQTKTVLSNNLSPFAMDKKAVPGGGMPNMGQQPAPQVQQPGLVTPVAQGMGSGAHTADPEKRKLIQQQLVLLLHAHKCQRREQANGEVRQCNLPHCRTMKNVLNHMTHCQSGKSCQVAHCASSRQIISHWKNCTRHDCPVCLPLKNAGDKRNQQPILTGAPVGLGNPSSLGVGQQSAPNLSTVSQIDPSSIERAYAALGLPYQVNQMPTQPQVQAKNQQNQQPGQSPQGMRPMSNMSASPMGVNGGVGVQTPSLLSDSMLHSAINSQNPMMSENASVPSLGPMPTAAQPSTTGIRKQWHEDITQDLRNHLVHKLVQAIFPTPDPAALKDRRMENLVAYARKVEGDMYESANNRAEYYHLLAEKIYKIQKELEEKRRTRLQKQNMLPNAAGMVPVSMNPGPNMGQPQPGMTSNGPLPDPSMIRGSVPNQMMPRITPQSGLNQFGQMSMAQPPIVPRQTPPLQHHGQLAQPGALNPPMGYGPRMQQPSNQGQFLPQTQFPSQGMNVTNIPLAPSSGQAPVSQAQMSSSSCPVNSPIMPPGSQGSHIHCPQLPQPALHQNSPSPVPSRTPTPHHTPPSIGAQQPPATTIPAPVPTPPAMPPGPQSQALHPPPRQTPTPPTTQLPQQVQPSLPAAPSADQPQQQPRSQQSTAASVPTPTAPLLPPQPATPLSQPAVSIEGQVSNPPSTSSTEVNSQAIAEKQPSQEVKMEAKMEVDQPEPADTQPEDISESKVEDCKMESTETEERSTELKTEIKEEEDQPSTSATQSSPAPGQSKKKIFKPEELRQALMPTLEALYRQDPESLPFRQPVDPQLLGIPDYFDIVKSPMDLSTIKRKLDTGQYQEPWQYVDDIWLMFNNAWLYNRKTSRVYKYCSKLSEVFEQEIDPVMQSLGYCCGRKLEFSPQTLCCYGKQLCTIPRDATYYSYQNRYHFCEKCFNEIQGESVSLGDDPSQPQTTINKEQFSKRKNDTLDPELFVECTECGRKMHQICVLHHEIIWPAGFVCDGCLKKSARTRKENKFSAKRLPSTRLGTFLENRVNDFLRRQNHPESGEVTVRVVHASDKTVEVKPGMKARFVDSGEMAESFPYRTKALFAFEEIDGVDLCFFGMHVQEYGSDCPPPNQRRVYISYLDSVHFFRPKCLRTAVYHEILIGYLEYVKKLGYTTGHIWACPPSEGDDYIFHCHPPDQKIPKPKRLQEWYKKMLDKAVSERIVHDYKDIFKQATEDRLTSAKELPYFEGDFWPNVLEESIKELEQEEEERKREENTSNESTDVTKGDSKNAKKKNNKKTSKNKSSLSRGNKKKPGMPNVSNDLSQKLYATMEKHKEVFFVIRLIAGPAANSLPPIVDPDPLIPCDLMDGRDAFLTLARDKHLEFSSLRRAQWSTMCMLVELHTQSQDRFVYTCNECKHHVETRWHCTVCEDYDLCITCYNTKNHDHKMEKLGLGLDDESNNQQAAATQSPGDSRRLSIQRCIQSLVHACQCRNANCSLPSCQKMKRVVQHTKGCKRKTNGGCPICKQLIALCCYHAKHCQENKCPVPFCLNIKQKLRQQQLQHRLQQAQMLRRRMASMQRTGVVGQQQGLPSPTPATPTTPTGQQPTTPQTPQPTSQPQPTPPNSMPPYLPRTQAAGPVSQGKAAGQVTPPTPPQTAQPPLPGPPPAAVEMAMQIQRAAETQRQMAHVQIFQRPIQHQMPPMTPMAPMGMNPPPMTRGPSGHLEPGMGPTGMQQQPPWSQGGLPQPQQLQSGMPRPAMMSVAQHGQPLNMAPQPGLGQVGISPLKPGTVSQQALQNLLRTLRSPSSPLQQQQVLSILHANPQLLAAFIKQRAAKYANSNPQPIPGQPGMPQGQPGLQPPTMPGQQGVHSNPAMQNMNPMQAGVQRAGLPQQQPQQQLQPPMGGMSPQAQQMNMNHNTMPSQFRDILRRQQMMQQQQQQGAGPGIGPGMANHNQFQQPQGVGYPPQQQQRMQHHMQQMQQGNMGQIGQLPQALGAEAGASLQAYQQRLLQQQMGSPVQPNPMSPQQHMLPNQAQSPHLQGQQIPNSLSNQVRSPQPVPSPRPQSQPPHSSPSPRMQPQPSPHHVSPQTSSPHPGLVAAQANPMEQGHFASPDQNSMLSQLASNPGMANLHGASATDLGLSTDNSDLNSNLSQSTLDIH

Key:
[1] = molecular target: chromobox protein homolog 3 (CBX3) (human (endogenous in GSC23 and CW468)) (UniProt Q13185); test: co-IP; endogenous proteins in lysates of patient-derived GSCs (GSC23, CW468); IP with anti-Kla antibody and reverse IP for CBX3, IgG control, immunoblot
[2] = molecular target: FLAG-CBX3, in HEK293T cells (UniProt Q13185); test: co-IP; HEK293T cells with HA-EP300 and FLAG-CBX3
[3] = molecular target: Flag-tagged CBX3 (Flag-CBX3), in GSCs (UniProt Q13185); test: co-IP; GSCs transduced with Flag-CBX3; endogenous EP300 detected

binding [1]: binds
Substance: SOX2 (from UniProt P48431 1-317)

binding [2]: binds
Substance: hemagglutinin-tagged EP300 (HA-EP300) (from UniProt Q09472 1-2414) (enzyme)

binding [3]: binds
Substance: EP300, endogenous (from UniProt Q09472 1-2414) (enzyme)
